## Library screen at single concentrations

Protein sequences, listed by entry. Tags and fused reporters are not part of them.
UniProt I6X8D2, whole entry: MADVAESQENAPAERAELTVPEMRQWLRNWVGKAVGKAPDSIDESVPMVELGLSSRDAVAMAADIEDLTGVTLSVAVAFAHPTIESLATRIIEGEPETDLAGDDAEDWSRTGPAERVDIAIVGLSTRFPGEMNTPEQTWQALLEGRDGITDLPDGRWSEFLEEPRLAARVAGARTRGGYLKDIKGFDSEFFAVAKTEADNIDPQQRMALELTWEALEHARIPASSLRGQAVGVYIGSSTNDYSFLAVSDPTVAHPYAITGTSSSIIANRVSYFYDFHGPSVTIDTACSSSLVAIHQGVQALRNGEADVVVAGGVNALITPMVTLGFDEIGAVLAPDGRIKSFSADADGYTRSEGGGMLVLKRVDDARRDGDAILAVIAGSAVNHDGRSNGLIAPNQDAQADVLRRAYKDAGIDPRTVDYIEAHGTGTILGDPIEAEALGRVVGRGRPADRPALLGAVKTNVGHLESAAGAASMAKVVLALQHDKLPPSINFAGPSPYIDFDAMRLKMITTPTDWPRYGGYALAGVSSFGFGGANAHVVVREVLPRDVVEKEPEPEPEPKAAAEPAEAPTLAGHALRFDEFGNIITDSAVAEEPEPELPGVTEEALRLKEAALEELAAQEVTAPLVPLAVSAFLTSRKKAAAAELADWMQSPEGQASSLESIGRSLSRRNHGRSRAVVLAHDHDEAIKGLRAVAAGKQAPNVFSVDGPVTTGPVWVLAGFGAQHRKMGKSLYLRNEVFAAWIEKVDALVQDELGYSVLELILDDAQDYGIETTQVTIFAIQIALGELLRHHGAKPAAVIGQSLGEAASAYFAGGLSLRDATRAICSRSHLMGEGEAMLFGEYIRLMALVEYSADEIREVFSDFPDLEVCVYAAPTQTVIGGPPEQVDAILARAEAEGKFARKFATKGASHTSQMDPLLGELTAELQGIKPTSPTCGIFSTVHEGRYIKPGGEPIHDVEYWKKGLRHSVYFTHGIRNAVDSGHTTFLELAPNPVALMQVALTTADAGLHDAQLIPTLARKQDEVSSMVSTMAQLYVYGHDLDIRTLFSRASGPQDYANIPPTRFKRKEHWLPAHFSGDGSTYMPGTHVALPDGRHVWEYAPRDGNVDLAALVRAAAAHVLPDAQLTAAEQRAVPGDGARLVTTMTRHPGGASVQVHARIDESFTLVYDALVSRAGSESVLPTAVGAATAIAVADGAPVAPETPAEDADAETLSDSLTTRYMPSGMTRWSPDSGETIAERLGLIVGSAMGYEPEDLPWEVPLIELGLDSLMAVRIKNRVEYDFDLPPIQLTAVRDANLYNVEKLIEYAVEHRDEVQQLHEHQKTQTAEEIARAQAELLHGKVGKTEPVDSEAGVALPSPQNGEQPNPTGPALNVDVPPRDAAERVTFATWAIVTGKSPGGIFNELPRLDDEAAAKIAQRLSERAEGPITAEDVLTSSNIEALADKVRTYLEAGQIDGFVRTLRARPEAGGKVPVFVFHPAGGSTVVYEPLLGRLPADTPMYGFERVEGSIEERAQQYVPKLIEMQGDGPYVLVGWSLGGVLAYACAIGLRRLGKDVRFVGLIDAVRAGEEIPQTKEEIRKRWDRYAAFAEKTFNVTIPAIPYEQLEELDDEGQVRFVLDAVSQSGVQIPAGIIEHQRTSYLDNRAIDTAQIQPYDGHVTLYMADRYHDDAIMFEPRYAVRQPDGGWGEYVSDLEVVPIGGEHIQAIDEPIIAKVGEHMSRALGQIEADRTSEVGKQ

Data taken from ChEMBL document CHEMBL3988442, “University of Dundee, Small-Polar-MMV Screening Library” (2021).

Values are the deposited “Percent Effect”, in %.
The record does not define 0% and 100%; most values in the screen are far below 50% and negative numbers occur (in some assays of this library far below -100).
The compounds are a random part of those screened.

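Polyketide synthase Pks13, Mycobacterium tuberculosis (UniProt I6X8D2). Enzyme assay of the thioesterase domain of polyketide synthase 13; the read-out is not stated. Tested at 30 µM. The record gives no direction; the compounds picked for IC50 retests had high values, so higher reads as stronger inhibition. Of about 67,000 compounds tested this way, about 300 (0.46%) reached 50% or more in at least one test.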

| # | SMILES | effect |
|---|---|---|
| 1 | `CN(C)C(=O)Cc1ccc(NC(=O)NC2CCCC2)cc1` | 10.89 |
| 2 | `Cc1cc(CN(C)C(=O)C2CCS(=O)(=O)C2)no1` (stereo not given) | -23.49 |
| 3 | `O=C(O)c1nnn(-c2ccc(OC(F)(F)F)cc2)c1-c1ccncc1` | -28.79 |
| 4 | `CN(C)C(=O)c1cncnc1-c1ccc(CNC(=O)C2CCCO2)cc1` (stereo not given) | -8.541 |
| 5 | `COCCN1CCCC(O)(CN2CCN(c3cc(C)ccn3)CC2)C1=O` (stereo not given) | -7.993 |
| 6 | `CCCN1CCCC1Cn1nc(C)cc1C` (stereo not given) | -21.53 |
| 7 | `CCS(=O)(=O)N1CCC(c2nnc(CN3CCOCC3)n2C)CC1` | -0.4821 |
| 8 | `Cc1cccc(COc2ccc(C(C)NC(=O)CNC(N)=O)cc2)c1` (stereo not given) | -0.4166 |
| 9 | `CN(C(=O)CSc1ccccn1)C1CCCN(CCc2ccccc2)C1` (stereo not given) | -6.172 |
| 10 | `Cc1cccc(CN2C(=O)CC[C@@H]3[C@H]2CCN3Cc2ccc(C)s2)n1` | -29.58 |
| 11 | `CCn1ccnc1CN1CCOC(CNc2cccnn2)C1` (stereo not given) | -9.326 |
| 12 | `COc1ncccc1CN1C[C@H](C(=O)N2CCCO2)[C@@H]2CCO[C@@H]2C1` | -24.78 |
| 13 | `COc1cccc(S(=O)(=O)N2C[C@@H](O)[C@H](N(C)C)C2)c1` | 4.498 |
| 14 | `CN1CCN(c2cc(CNC(=O)c3cnccn3)ccn2)CC1` | -13.61 |
| 15 | `CC(NC(=O)NCCCc1n[nH]c(N)c1C#N)c1ccc(Cl)cc1` (stereo not given) | -5.819 |
| 16 | `CN1CCN(C(=O)CCc2cccnc2)c2ccc(F)cc21` | -25.56 |
| 17 | `CC(C)(C)C1CC(=O)Nc2c1cnn2Cc1ccco1` (stereo not given) | 8.336 |
| 18 | `O=C(NS(=O)(=O)c1cccc(F)c1)c1ccccc1F` | -4.828 |
| 19 | `CC(C)Nc1ncnc2c1CCN(C(=O)CCc1ccccc1)CC2` | -8.601 |
| 20 | `CC1(c2ccccc2)CCC(=O)N(CCN2CCCOC2=O)C1` (stereo not given) | -4.68 |
| 21 | `COCc1nc2cc(NCc3csc(C)n3)ccc2o1` | -12.21 |
| 22 | `CC(C)Cn1cncc1CNC(=O)c1cccc(Cn2cccn2)c1` | -77.5 |
| 23 | `CCCOCC(=O)NS(=O)(=O)c1ccc2c(c1)OCCO2` | -21.77 |
| 24 | `Cn1cc(N2CCCC(Nc3ccc4c(c3)CCCO4)C2=O)cn1` (stereo not given) | -20.85 |
| 25 | `O=C(CNC1(CCO)CCOCC1)Nc1ccc(F)cc1F` | 0.8173 |
| 26 | `CN(C)C(=O)CCC(=O)N1CCC2(CC1)COC2` | -16.92 |
| 27 | `Cc1cc(C)n(CC2CCCN2CC(=O)N(C)CCC#N)n1` (stereo not given) | -10.27 |
| 28 | `Cc1ncsc1CCn1ccnc1-c1cc2n(n1)CCCNC2` | -4.265 |
| 29 | `Cc1nnc(SC2CCc3ccccc3NC2=O)o1` (stereo not given) | -13.41 |
| 30 | `CCc1ccc(S(=O)(=O)Nc2cn(C)cc(Br)c2=O)cc1` | -20.69 |
| 31 | `CCC1c2ccsc2CCN1C(=O)NCc1cc(C)on1` (stereo not given) | -20.63 |
| 32 | `CNC(=O)C1CN(Cc2cc(C)on2)CCN(C(C)=O)C1` (stereo not given) | 11.44 |
| 33 | `CSc1nc2ccsc2c(=O)n1CC(=O)N(C)C1CCCCC1` | -21.37 |
| 34 | `O=C(NCCc1cc(N2CCOCC2)nc(NC2CC2)n1)C1CCCO1` (stereo not given) | -6.759 |
| 35 | `CC(=O)N1CCc2nc(N(C)C)nc(NCCc3ccccc3)c2CC1` | 1.556 |
| 36 | `COc1ccc2cc(C3CN(C(=O)CN4CCCC4)CCO3)ccc2c1` (stereo not given) | 3.269 |
| 37 | `Cc1cc(C)n(CC(=O)N(C)Cc2csc(-c3cccs3)n2)c(=O)n1` | -12.27 |
| 38 | `CC(=O)N1CCCC1c1cccc(Cc2ccc(F)cc2)n1` (stereo not given) | -46.94 |
| 39 | `O=C(c1cnc(-c2ncccn2)s1)N1CCCC(n2cccn2)C1` (stereo not given) | 0.2183 |
| 40 | `O=C(CNC(=O)N1CCc2c([nH]c3ccc(Cl)cc23)C1)NC1CCCC1` | 12.28 |
| 41 | `CN(Cc1noc2c1CCCC2)C(=O)C1Cc2ccccc2CN1C` (stereo not given) | -2.344 |
| 42 | `COCC1CN(C(=O)Nc2ccc(Cl)cc2Cl)CCO1` (stereo not given) | -16.46 |
| 43 | `O=C(NCC(O)c1ccccc1C(F)(F)F)c1cccnc1` (stereo not given) | -11.49 |
| 44 | `O=C(CN1CCOCC1)Nc1ccc(C(F)(F)F)cc1Cl` | -11.7 |
| 45 | `CC(C)=CCN1C[C@@H]2CN(C(=O)c3ccc(CO)cc3)C[C@]2(C(=O)O)C1` | 1.96 |
| 46 | `O=C1C(NCc2ccc3c(c2)CCO3)CCN1Cc1ccccc1` (stereo not given) | -2.948 |
| 47 | `CC(C)CNC(=O)C[S+]([O-])Cc1csc(C2CCCCC2)n1` (stereo not given) | -37.92 |
| 48 | `O=C(c1ccc(Cl)o1)N1CCCC1c1nnc2n1CCCCC2` (stereo not given) | -17.87 |
| 49 | `OCCN(Cc1ccccc1)Cc1nc(-c2ccc3c(c2)OCO3)no1` | 39.57 |
| 50 | `CCN1CC(COC(=O)c2cc(C)nn2CC)CC1=O` (stereo not given) | -8.753 |
| 51 | `Cc1cc(NC(=O)NCC(C)N2CCOCC2)n(C)n1` (stereo not given) | -0.8445 |
| 52 | `CCN(CC(=O)NC)C(=O)c1sc(Cc2ccccc2)nc1C` | -1.716 |
| 53 | `CC(C)(C)C1SCC(=O)Nc2c1c(O)nn2C1CCCCC1` (stereo not given) | 2.522 |
| 54 | `O=C1CCC(C(=O)N2CCC(Cn3cc(C4CCCC4)nn3)CC2)=NN1` | -3.747 |
| 55 | `CCC(=O)N1CCc2nc(N3CCOCC3)nc(N(C)C)c2CC1` | -3.972 |
| 56 | `Cc1ccc(OCc2occc2C(=O)N2CCCCC(N)C2)cc1` (stereo not given) | -16.14 |
| 57 | `Cc1ccc(C(=O)N2CCc3c(CNc4ncccn4)cncc3C2)o1` | -9.658 |
| 58 | `CC(C)NC(=O)N1CC(=O)c2sc(NC3CCCCC3)nc2C1` | 18.36 |
| 59 | `O=C(c1cc2c(s1)CCN2C(=O)C1CC1)N1CCCC1` | -18.64 |
| 60 | `CCC(=O)N1CCc2[nH]cnc2C12CCN(CC1CCOC1)CC2` (stereo not given) | -9.26 |
| 61 | `CC(C)N(C)S(=O)(=O)NCc1cccnc1N(C)C` | -17.39 |
| 62 | `Cc1noc(C)c1CN(C)C(=O)c1ccc(O)nc1` | -1.63 |
| 63 | `CNC(=O)c1nc(CN2CCOC(Cc3ccc(F)cc3)C2)no1` (stereo not given) | -15.64 |
| 64 | `O=C(Nc1cccnc1)[C@H]1CN(Cc2ccco2)C[C@H]2OCC[C@@H]12` | 3.063 |
| 65 | `CCN(CCn1cccn1)Cc1nc(-c2cccc(C)c2)oc1C` | -27.02 |
| 66 | `NC(=O)CN1CCCN(C(=O)Cc2ccc(Br)cc2)CC1` | -2.1 |
| 67 | `Cc1ccc(CN2CCN(Cc3cc(C)n[nH]3)CC2CCO)cc1` (stereo not given) | 16.66 |
| 68 | `COc1cccc(CN(C)C(=O)CN2CCN(c3nccs3)CC2)c1` | -16.43 |
| 69 | `c1ccc(OCc2n[nH]c3c2CN(CC2CC2)C3)nc1` | -36.09 |
| 70 | `CN(Cc1cccnc1)[C@@H]1CN(C(=O)c2ccco2)[C@@H]2CCCO[C@H]12` | -4.742 |
| 71 | `O=C(NCCN1CCC(c2cccs2)CC1)c1ccc(F)cc1Cl` | -10.1 |
| 72 | `CCN1CCOCC2(CCCN(C(=O)c3ccccc3F)C2)C1` (stereo not given) | -44.65 |
| 73 | `Cc1ccsc1C(=O)NCc1cccnc1N(C)CCc1ccccn1` | -18.93 |
| 74 | `COc1ccc(-n2ncc3c2NC(=O)CSC3C(C)C)cc1` (stereo not given) | -18.33 |
| 75 | `CC(NC(=O)NCCS(C)(=O)=O)c1ccc2c(c1)CCC(=O)N2` (stereo not given) | -5.525 |
| 76 | `CCCn1cnnc1CNC(=O)CC1C(=O)NCCN1CC(C)(C)C` (stereo not given) | 45.84 |
| 77 | `O=C(NC[C@]1(O)CN(Cc2ccccc2F)C[C@H]1O)c1cscn1` | 26.44 |
| 78 | `CCOC(=O)N(C)CC(=O)NCCc1coc(-c2ccc(C)cc2)n1` | -14.77 |
| 79 | `c1cnc(N2Cc3nccn3CC(COc3cccnc3)C2)nc1` (stereo not given) | 1.783 |
| 80 | `NC(=O)C1CCN(C(=O)NCCOc2ccc3c(c2)CCC3)CC1` | -9.421 |
| 81 | `Cc1ccc(NC2CCN(C(=O)c3ccoc3C)CC2)nn1` | -17.86 |

9 of the entries, repeated:

* Cc1cc(NC(=O)NCC(C)N2CCOCC2)n(C)n1 (stereo not given) | -0.8445%
* CC(NC(=O)NCCCc1n[nH]c(N)c1C#N)c1ccc(Cl)cc1 (stereo not given) | -5.819%
* CCN1CC(COC(=O)c2cc(C)nn2CC)CC1=O (stereo not given) | -8.753%
* Cc1cc(CN(C)C(=O)C2CCS(=O)(=O)C2)no1 (stereo not given) | -23.49%
* O=C(NS(=O)(=O)c1cccc(F)c1)c1ccccc1F | -4.828%
* CC(C)N(C)S(=O)(=O)NCc1cccnc1N(C)C | -17.39%
* O=C(c1cc2c(s1)CCN2C(=O)C1CC1)N1CCCC1 | -18.64%
* CC1(c2ccccc2)CCC(=O)N(CCN2CCCOC2=O)C1 (stereo not given) | -4.68%
* CCc1ccc(S(=O)(=O)Nc2cn(C)cc(Br)c2=O)cc1 | -20.69%